From PMC5311967 come the findings set out here.

Chains of the proteins cited; added tags and fusions are not shown. Lines headed by an entry give the natural chain unless they say otherwise; changes in a name come on top. A line that says so, or that is headed by a name, gives the form on record, which may keep a tag or linker.
UniProt P10275: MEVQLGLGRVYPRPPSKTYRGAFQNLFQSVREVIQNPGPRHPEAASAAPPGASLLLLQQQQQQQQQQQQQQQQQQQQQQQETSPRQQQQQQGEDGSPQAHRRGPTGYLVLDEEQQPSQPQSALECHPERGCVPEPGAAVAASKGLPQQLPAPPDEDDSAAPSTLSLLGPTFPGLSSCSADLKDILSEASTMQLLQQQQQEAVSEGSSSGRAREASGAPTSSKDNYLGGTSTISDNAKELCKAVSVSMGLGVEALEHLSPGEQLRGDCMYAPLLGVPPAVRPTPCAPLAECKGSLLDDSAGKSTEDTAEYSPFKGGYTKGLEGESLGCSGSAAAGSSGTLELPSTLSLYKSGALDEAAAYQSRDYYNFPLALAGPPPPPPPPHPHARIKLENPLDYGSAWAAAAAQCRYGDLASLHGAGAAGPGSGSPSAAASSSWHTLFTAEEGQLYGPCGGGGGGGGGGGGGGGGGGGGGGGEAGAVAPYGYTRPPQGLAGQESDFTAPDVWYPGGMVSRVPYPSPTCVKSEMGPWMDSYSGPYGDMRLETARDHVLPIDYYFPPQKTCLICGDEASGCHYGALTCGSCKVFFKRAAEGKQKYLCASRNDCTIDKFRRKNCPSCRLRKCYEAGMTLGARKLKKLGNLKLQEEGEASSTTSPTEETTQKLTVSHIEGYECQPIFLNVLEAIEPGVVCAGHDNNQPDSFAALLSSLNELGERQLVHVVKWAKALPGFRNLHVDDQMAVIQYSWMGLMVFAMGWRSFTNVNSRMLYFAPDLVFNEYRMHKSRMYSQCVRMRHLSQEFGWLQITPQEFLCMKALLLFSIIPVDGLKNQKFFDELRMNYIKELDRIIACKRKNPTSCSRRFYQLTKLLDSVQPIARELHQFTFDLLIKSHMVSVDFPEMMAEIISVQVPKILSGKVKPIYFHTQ
androgen receptor variant AR-V7 (P10275, form named): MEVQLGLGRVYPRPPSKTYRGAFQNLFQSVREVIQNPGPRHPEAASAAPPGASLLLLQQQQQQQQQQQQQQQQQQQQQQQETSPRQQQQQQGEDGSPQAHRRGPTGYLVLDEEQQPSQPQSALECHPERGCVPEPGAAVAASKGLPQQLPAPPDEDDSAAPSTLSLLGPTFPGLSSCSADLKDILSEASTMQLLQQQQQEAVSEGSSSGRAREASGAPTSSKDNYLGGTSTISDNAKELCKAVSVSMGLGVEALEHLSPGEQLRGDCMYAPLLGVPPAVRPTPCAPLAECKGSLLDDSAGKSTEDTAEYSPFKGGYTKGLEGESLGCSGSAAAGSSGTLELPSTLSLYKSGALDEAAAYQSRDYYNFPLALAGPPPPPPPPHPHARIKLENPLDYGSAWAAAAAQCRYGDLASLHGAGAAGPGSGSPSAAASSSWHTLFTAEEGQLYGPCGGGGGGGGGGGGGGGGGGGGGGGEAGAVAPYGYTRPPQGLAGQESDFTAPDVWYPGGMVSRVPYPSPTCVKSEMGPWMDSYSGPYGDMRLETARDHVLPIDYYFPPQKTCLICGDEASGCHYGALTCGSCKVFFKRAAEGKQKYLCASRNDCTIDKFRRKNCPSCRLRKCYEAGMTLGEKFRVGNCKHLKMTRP

Test [1] has as its target full-length androgen receptor (UniProt P10275). The test can be described thus: co-IP; immunoprecipitation with the NTD-binding anti-AR antibody (N-20) from cells co-transfected for 48 hours with Aurora A and FL-AR, AR-V7 or AR-123/2b (PC-3 in the text, HEK293 in the legend); western blot with anti-AR (N-20) and anti-Aurora A. Background: Immunoblotting shows a protein as a band on a membrane.

For test [2], the target named is androgen receptor variant AR-V7 (UniProt P10275). The test is described as above.

No constants are given. Whether binding was seen depends on the method and setting. In cells and extracts the contact can be indirect. Some results given as binding are weak or reduced against the parent protein; the word gives no strength.

B1: Aurora A kinase (enzyme, UniProt O14965 1-403)
chain: MDRSKENCISGPVKATAPVGGPKRVLVTQQFPCQNPLPVNSGQAQRVLCPSNSSQRIPLQAQKLVSSHKPVQNQKQKQLQATSVPHPVSRPLNNTQKSKQPLPSAPENNPEEELASKQKNEESKKRQWALEDFEIGRPLGKGKFGNVYLAREKQSKFILALKVLFKAQLEKAGVEHQLRREVEIQSHLRHPNILRLYGYFHDATRVYLILEYAPLGTVYRELQKLSKFDEQRTATYITELANALSYCHSKRVIHRDIKPENLLLGSAGELKIADFGWSVHAPSSRRTTLCGTLDYLPPEMIEGRMHDEKVDLWSLGVLCYEFLVGKPPFEANTYQETYKRISRVEFTFPDFVTEGARDLISRLLKHNPSQRPMLREVLEHPWITANSSKPSNCQNKESASKQS
Consider B1, for which the values for the binding entry in test [1] and in test [2] were “binds” and “no binding”, respectively.
